Laboratory results taken from paper PMC3438448.
These are yes or no findings as the source states them, for the method shown.

Target: Lis1 (S. cerevisiae Pac1) (S. cerevisiae) (UniProt P39946)
Assay: cross-linking; 0.5 μM protein ± 0.05% glutaraldehyde, 5 min, ambient temperature; 30 mM HEPES pH 7.2, 50 mM potassium acetate; SDS-PAGE; control pretreated with 4% LDS; both purified

B1: Lis1 (S. cerevisiae Pac1) (protein, UniProt P39946 1-494)
chain: MTNWQQQLPLTDTQKNELDKSVLRYLNWNYKQTVRHEHAQDYESVRHAIVTLSGFLLQESVDRQEFISNNDTSNESMVDIDELLLPKKWNSIVRLQKKIIELEQNTETLVSQIKDLNTQVSELAQFKPTTSNGTSAHNVLKWIPRNLPSCLINVESSVTSVKLHPNLPIVFVATDHGKLYAFDLFNYTIPLASLQSHTKAITSMDVLFTNYTNSSKKNYLVIVTASKDLQIHVFKWVSEECKFQQIRSLLGHEHIVSAVKIWQKNNDVHIASCSRDQTVKIWDFHNGWSLKTFQPHSQWVRSIDVLGDYIISGSHDTTLRLTHWPSGNGLSVGTGHEFPIEKVKFIHFIEDSPEIRFRTPSTDRYKNWGMQYCVSASRDRTIKIWEIPLPTLMAHRAPIPNPTDSNFRCVLTLKGHLSWVRDISIRGQYLFSCADDKSVRCWDLNTGQCLHVWEKLHTGFVNCLDLDVDFDSNVTPRQMMVTGGLDCKSNVFMR
- binding: no binding (condition: pretreated with 4% LDS (denatured))
